# Tests used:
# Test in all cases: Minimum inhibitory concentration, test tube serial dilution test
# Staphylococcus aureus = assay type: cell-based; details: read-out: Minimum Inhibitory Concentration
# Procedure: (§1) The antimicrobial nature of the instant novel nontoxic compounds was shown by a standard test tube serial dilution test in which an appropriate number of test tubes of broth containing decreasing concentration of the test agent was innoculated with the test organism (0.1% in 95% ethyl alcohol). After a suitable period of incubation, the tubes were examined for the presence or absence of growth. The activity of the test agent was the lowest concentration which inhibited the growth of the organism and is expressed as the minimal inhibitory concentration in μgm/ml.
# C. albicans = assay type: cell-based; details: Candida albicans, read-out: Minimum Inhibitory Concentration
# Procedure: as §1
# A. niger = assay type: cell-based; details: Aspergillus niger, read-out: Minimum Inhibitory Concentration
# Procedure: as §1
# Ps. aeruginosa = assay type: cell-based; details: Pseudomonas aeruginosa, read-out: Minimum Inhibitory Concentration
# Procedure: as §1
# Strep. mutans = assay type: cell-based; details: Streptococcus mutans, read-out: Minimum Inhibitory Concentration
# Procedure: as §1
# E. Coli = assay type: cell-based; details: Escherichia coli, Gram Negative
# From the text: More specifically they are particularly effective against gram positive organisms such as Staphylococcus aureus, Streptococcus sanguis and mutans and Actinomycetis naeslundii; gram negative organisms such as Pseudomonas aeruginosa and Escherichia coli; and against fungi, such as Candida albicans (yeast) and Trichophyton mentogrophytes and Aspergillus niger (mold).
# as §1, with “μgm/ml. As shown in the following table of anitmicrobial data, the betaines of this invention are active against a variety of micro-organisms with maximum activity when the higher alkyl group has 14-16 carbons.” for “μgm/ml.”
# Strep. sanguis = assay type: cell-based, Streptococcus sanguis; details: Streptococcus, read-out: Minimum Inhibitory Concentration
# Procedure: as §1
# T. ment. = assay type: cell-based, Trichophyton mentogrophytes; details: Trichophyton, read-out: Minimum Inhibitory Concentration
# Procedure: as §1
# A. naeslundi = assay type: cell-based, Actinomycetis naeslundii; details: Actinomyces naeslundii, read-out: Minimum Inhibitory Concentration
# Procedure: as §1
structure (smiles),measurement,setting,value
"CC(C)(C)CC(C)(C)c1ccc(OCCOCC[N+](C)(C)Cc2ccccc2)cc1 [Benzethonium Chloride, benzethonium chloride, reference compound]",MIC,Staphylococcus aureus,0.78 µg/mL
same,MIC,C. albicans,1.56 µg/mL
same,MIC,A. niger,50 µg/mL
same,MIC,Ps. aeruginosa,50 µg/mL
same,MIC,Strep. mutans,0.78 µg/mL
same,MIC,E. Coli,100 µg/mL
same,MIC,Strep. sanguis,3.12 µg/mL
same,MIC,T. ment.,12.5 µg/mL
same,MIC,A. naeslundi,0.39 µg/mL

# Source: patent publication US4130637A, “Anti-plaque agents” (Colgate-Palmolive Company, priority 1977, dated 1978)
